About 5,500 (1.4%) of roughly 400,000 compounds were called active. Inconclusive results, whose numbers are uncertain, are shown with a selection of clear calls. Calls come from the whole dose curve; as a rule, active = well fitted cell-killing curve with a large enough effect; inconclusive = small, poorly fitted or top-dose-only effect, or effect the other way; inactive = flat fitted curve, though single readings scatter. Potencies of inconclusive entries are doubtful fits and often do not repeat.
Assay: qHTS assay for MDR1-selective chemotherapeutics: Primary screen using the parental adenocarcinoma cell KB-3-1; note: nearly all actives have a fitted effect of over 60% in size
Settings: KB-3-1 viability, CellTiter-Glo ATP luminescence, 72 h; activity change, negative = cytotoxic: at 46.1 µM (top of the series)
Outline: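 Cytotoxicity measured as CellTiter-Glo luminescence after 72 h at 37 C. Compound titrations were pinned onto drug-naive KB-3-1 parental adenocarcinoma cells grown in DMEM with 10% FBS, and normalized data fitted to concentration-response curves.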
% is set by controls: 0 for no effect and ±100 for the full control effect; potency is the fitted concentration of half-maximal effect.

Structure (SMILES) | Potency | activity change, negative = cytotoxic
NC(=O)C1(N2CCCCC2)CCN(CC(=O)Nc2ccc(Oc3ccccc3)cc2)CC1 | inconclusive: 20.6 µM [cytotoxic, single point] | 
CCCN(Cc1cc2cc(C)ccc2[nH]c1=O)C(=O)c1cccc(OC)c1 | active: 16.4 µM | 
CCCSC(=S)c1c(C)[nH]n(-c2ccccc2)c1=O | inconclusive: 25.9 µM [cytotoxic, single point] | 
CCN(CC)S(=O)(=O)c1ccc(N2CCOCC2)c(NC(=S)NC(=O)c2ccco2)c1 | inactive | 
CCNC(=O)NC(=O)C(C)N1C(=O)NC(c2ccccc2)(c2ccccc2)C1=O (stereo not given) | inconclusive: 3.66 µM [rising, full curve, poor fit] | 
O=C(CSc1nc2ccccc2o1)NCc1ccc2c(c1)OCO2 | inactive | 
COc1ccc(NC(=S)NNc2ccc(S(=O)(=O)Nc3ccccc3C(=O)O)cc2[N+](=O)[O-])cc1 | inconclusive: 29.1 µM [cytotoxic, single point] | 
COc1ccc(-c2cc3nc(C4CCN(C(=O)OC(C)(C)C)CC4)c(C(=O)Nc4cc(C)cc(C)c4)cn3n2)cc1 | inactive | 
Cc1ccc(NC(=O)CSc2ccc3c(c2)OCCO3)c(O)c1 | inconclusive: 23.1 µM [cytotoxic, single point] | 
COc1ccc(-c2csc(NC(=O)c3ccc(OCC(=O)N4CCOCC4)c(OC)c3)n2)cc1OC | inconclusive: 29.1 µM [cytotoxic, single point] | 
Cc1ccc2c(COC(=O)c3ccc(NC(=O)CC#N)cc3)cc(=O)oc2c1C | inconclusive: 23.1 µM [rising, single point] | 
Cc1cc(C)c(C(N)=O)c(SCC(=O)c2ccc(Cl)cc2)n1 | inactive | 
Cc1ccc(S(=O)(=O)N2CCCC2CNC(=O)C(=O)NCc2cccs2)cc1 (stereo not given) | inconclusive: 29.1 µM [cytotoxic, single point] | 
Cc1nc(N)c(Br)c(C)c1Br | inconclusive: 0.231 µM [rising, full curve, poor fit] | 
CCOC(=O)N1CCN(C(=O)c2cc(S(=O)(=O)N3CCc4ccccc43)ccc2OC)CC1 | inconclusive: 7.31 µM [rising, partial curve] | 
CCOC(=O)c1nn(-c2ccc(C)c(Cl)c2)c(=O)c(C#N)c1C | inconclusive: 0.184 µM [cytotoxic, full curve] | 
COc1cc(CNC2CCCCCCC2)cc(Br)c1OCC#N | inactive | 
CCN(CC)CCn1c(NCc2cccc(OC)c2)nc2ccccc21 | inactive | 
Cc1cccc(N(CC(=O)NC2CCCC2)C(=O)c2csnn2)c1C | inconclusive: 23.1 µM [rising, single point] | 
CCC(C(=O)Nc1cc(F)ccc1F)n1nc(C)c2c(C)n(-c3ccc(C)cc3)nc2c1=O (stereo not given) | inconclusive: 29.1 µM [cytotoxic, single point] | 
CSc1ccccc1C(=O)N(CC1CCCO1)c1c(N)n(Cc2ccccc2)c(=O)[nH]c1=O (stereo not given) | inconclusive: 20.6 µM [rising, partial curve, poor fit] | 
COc1ccc(NC(=O)c2ccccc2SCc2ccccc2)cc1 | inconclusive: 29.1 µM [cytotoxic, single point] | 
COc1ccc(N(CC2CO2)S(=O)(=O)c2ccccc2)cc1 (stereo not given) | inactive | 
COc1ccc(NC(=O)c2cc(C)cc(C)c2)cc1[N+](=O)[O-] | inconclusive: 20.6 µM [rising, single point] | 

By substructure: the compounds so far with a Cl atom
Structure (SMILES) | Potency | activity change, negative = cytotoxic
Cc1cc(C)c(C(N)=O)c(SCC(=O)c2ccc(Cl)cc2)n1 | inactive | 
CCOC(=O)c1nn(-c2ccc(C)c(Cl)c2)c(=O)c(C#N)c1C | inconclusive: 0.184 µM [cytotoxic, full curve] | 

Full records as entered above:
`Cc1nc(N)c(Br)c(C)c1Br` in the list: Potency: inconclusive: 0.231 µM [rising, full curve, poor fit]
`COc1ccc(N(CC2CO2)S(=O)(=O)c2ccccc2)cc1` (stereo not given) in the list: Potency: inactive

(list continues)

Structure (SMILES) | Potency | activity change, negative = cytotoxic
CC(=O)c1c(C(C)=O)c(C)n(-c2nc(-c3ccc(Br)cc3)c(C)s2)c1C | inconclusive: 25.9 µM [cytotoxic, single point] | 
COc1ccc(CC(=O)N2CCc3cc(OC)c(OC)cc3C2C)c(OC)c1 (stereo not given) | inactive | 
CCN(CC)C(=O)CSc1nnc(-c2cccc(OC)c2)o1 | inconclusive: 3.66 µM [rising, partial curve, poor fit] | 
CCOc1ccccc1/C=N\Nc1cnn(Cc2ccccc2)c(=O)c1Cl | inactive | 
COc1ccc(NC(=O)CN2C(=O)c3cccnc3Sc3ccccc32)cc1OC | inactive | 
CCOC(=O)c1oc2ccc(S(=O)(=O)n3nc(-c4ccc(Cl)cc4)cc3N)cc2c1C | inconclusive: 25.9 µM [cytotoxic, partial curve] | 
N=C1C(c2nc3ccccc3s2)=C(O)CN1NC(=O)c1ccc([N+](=O)[O-])cc1 | inconclusive: 25.9 µM [cytotoxic, single point] | 
CN(C(=O)C(Cl)Cl)C1CC2C=CC1C2 (stereo not given) | inconclusive: 4.61 µM [rising, full curve, poor fit] | 
Cc1cc(C)nc(N/N=C/c2ccc3c(c2)OCCO3)n1 | inconclusive: 29.1 µM [rising, single point] | 
Cc1ccc(CNC(=O)Cc2ccc(-n3cccc3)cc2)cc1 | active: 7.31 µM | 
CCC(=O)Nc1ccc(C(=O)CN2C(=O)NC3(CCOc4ccccc43)C2=O)cc1 (stereo not given) | inconclusive: 0.0073 µM [rising, full curve] | 
c1ccc(N2CCN(Cc3cn4cccnc4n3)CC2)cc1 | inconclusive: 11.6 µM [rising, partial curve, poor fit] | 
COC(=O)[C@@]12C[C@@H](CC(=O)NCc3ccc(C)o3)C(=O)N(CCc3ccc(OC)c(OC)c3)C1=CCC(C)(C)C2 | inconclusive: 29.1 µM [cytotoxic, single point] | 
NC(Cc1ccc(Cl)cc1)c1csc(Nc2ccc(C(=O)c3ccccc3)cc2)n1 (stereo not given) | inconclusive: 29.1 µM [cytotoxic, single point] | 
COc1cc2c(cc1OC)C(c1cc3ccc(C)cc3[nH]c1=O)N(C(=O)c1ccco1)CC2 (stereo not given) | inconclusive: 18.4 µM [cytotoxic, single point] | 
CN(c1ccccc1)S(=O)(=O)c1cccc(C(=O)Nc2ccc3c(c2)CCC3)c1 | inconclusive: 29.1 µM [cytotoxic, single point] | 
COc1ccc([C@H]2CC(=O)C=C(c3cc(Cl)ccc3OC)C2)cc1 | inconclusive: 18.4 µM [cytotoxic, single point] | 
CCOc1ccc(C(=O)N(c2ccccn2)C2CCCCC2)cc1 |  | inconclusive: -27.5%
Cc1nc(Nc2cnc(/C=C/c3cc(C(=O)Nc4cccc(C(F)(F)F)c4)ccc3C)cn2)cc(N2CCNCC2)n1 | inconclusive: 29.1 µM [cytotoxic, single point] | 
Cc1ccc(C(=O)/C=C/c2ccc(F)cc2)o1 | inactive | 
CCCNC(=O)C1(C)CCCN(Cc2ccc(-c3ccccn3)cc2)C1 (stereo not given) | inactive | 
C=CCOC(=O)C1=C[C@@H](c2csc3ccccc23)C[C@@H](OCc2ccc(CO)cc2)O1 | inconclusive: 29.1 µM [cytotoxic, single point] | 
C=C1CC2C(CCC3(C)C2CCC3(O)C(C)=O)C2(C)CCC(=O)C=C12 (stereo not given) | active: 20.6 µM | 
Oc1ccc(C=NNc2ccccn2)c(O)c1 | inconclusive: 2.91 µM [cytotoxic, partial curve, poor fit] | 

Structure (SMILES) | Potency | activity change, negative = cytotoxic
CC(C)n1nnnc1C1c2ccccc2C(=O)N1Cc1ccco1 (stereo not given) | inactive | 
CCCC(=O)NC1=C(Cl)C(=O)c2ccccc2C1=O | inconclusive: 23.1 µM [cytotoxic, single point] | 
CCCCc1ccc(NC(=S)Nc2ccc(Cl)c(S(=O)(=O)N(C)C)c2)cc1 | inconclusive: 29.1 µM [cytotoxic, single point] | 
Cc1ccc(S(=O)(=O)N2CCN(C(=O)c3cc(-c4ccc(Br)cc4)n[nH]3)CC2)c(C)c1 | inactive | 
O=[N+]([O-])c1ccc(Cl)cc1P(=O)(O)c1cc(Cl)ccc1[N+](=O)[O-] | inactive | 
CC1(c2ccc3ccccc3c2)NC(=O)N(CC(=O)N2CCN(Cc3ccc(C#N)cc3)CC2)C1=O (stereo not given) | inactive | 
COc1ccc(-c2c(C(=O)c3ccccc3)[nH]c(N)c2C(N)=O)cc1OC | inconclusive: 29.1 µM [rising, single point] | 
O=C(Nc1ccncc1)Nc1ccc(Br)cc1Cl | inactive | 
Cc1cc(C(=O)CSc2nnc(-c3cccnc3)n2-c2ccccc2F)c(C)n1C | inconclusive: 20.6 µM [cytotoxic, single point] | 
CCN(CC)c1ccc(NC(=O)c2cccn2-c2nnc(N3CCCCC3)s2)c(C)c1 | inactive | 
Brc1ccc(/C=N/n2cnnc2)s1 | inconclusive: 29.1 µM [cytotoxic, single point] | 
CC1CCc2nc(NC(=O)Nc3ccc4c(c3)OCO4)sc2C1 (stereo not given) | active: 13 µM | 
Cc1cc2nc(-c3ccc[nH]c3=O)n(Cc3ccccc3F)c2cc1C | inactive | 
CC(C)c1cccc(-c2ccc3c(c2)S(=O)(=O)c2cccc(C(=O)NCc4ccccc4)c2C3=O)c1 | inconclusive: 29.1 µM [cytotoxic, single point] | 
Cc1cc(C)n2nc(C(=O)OCC(=O)N(C)C3CCS(=O)(=O)C3)nc2n1 (stereo not given) | inconclusive: 29.1 µM [rising, single point] | 
CCN1CCN(c2ccc(S(=O)(=O)N3CCOCC3)cc2NC(=O)c2cc(Cl)nc3ccccc23)CC1 | inactive | 
O=S(=O)(c1ccc(N2CC=C(c3ccccc3)CC2)nc1)N1CCCC1 | inconclusive: 20.6 µM [cytotoxic, single point] | 
Cc1cc(C)cc(C(=O)N2CCN(c3ccccn3)CC2)c1 | inactive | 
COc1ccc(NS(=O)(=O)c2cc(C(=O)N3CCN(C(C)=O)CC3)ccc2Cl)cc1 | inactive | 
O=c1ccc2ccc(Oc3ccc(Cl)cc3[N+](=O)[O-])cc2o1 | inactive | 
CCN(c1ccccc1)S(=O)(=O)c1ccc(C(=O)NCCCn2ccnc2)cc1 | inconclusive: 29.1 µM [rising, single point] | 
COc1ccc(Cl)cc1NC(=O)COC(=O)C1COc2ccccc2O1 (stereo not given) | inactive | 

From PubChem BioAssay AID1347075 (National Center for Advancing Translational Sciences (NCATS), 2019)
